One molecule from patent US20150337356A1 (FRIEDRICH ALEXANDER UNIVERSITAET ERLANGEN NUERNBERG, published 2015) can be followed below.

The chains behind the UniProt entries cited, without tags or fusion partners. Residues count along the entry.
UniProt P78536, 215-824 limits assumed: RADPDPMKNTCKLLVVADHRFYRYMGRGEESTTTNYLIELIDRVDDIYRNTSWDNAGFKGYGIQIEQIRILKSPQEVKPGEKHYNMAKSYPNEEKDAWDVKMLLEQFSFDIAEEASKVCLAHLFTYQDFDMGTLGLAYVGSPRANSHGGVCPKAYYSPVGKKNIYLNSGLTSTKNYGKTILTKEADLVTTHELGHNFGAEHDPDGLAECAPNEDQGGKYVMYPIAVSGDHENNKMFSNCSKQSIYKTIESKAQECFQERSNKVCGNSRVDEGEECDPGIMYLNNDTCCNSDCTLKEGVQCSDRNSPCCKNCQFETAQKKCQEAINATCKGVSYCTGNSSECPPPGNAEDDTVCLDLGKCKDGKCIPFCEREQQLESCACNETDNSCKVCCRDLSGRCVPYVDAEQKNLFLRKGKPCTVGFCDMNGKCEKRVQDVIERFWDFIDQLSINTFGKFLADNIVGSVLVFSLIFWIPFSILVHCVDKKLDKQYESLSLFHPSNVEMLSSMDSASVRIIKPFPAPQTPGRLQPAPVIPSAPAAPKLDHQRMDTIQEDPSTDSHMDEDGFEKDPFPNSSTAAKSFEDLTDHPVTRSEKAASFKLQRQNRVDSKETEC

The assay addresses TNFα converting enzyme (TACE/ADAM17) (UniProt P78536 215-824, limits assumed). Description: co-immunoprecipitation, transfected 293T cells (FIG. 1F). On the procedure:
Transfections into 293T cells and protein assays. Transient transfections into 293T cells as well as immunoprecipitations and immunoblots were performed as described previously (Baur et al., 1997; Witte et al., 2004; Wolf et al., 2008). In general 20 μg of cellular protein lysate and 10 μg of EV lysate were loaded per lane. The latter corresponded to the secretion from 2-4 mio 293T cells within 48 h. Endogenous TACE activity was measured using SensoLyte®520 TACE (α-Secretase) Activity Assay Kit from AnaSpec, according to the manufacturer's procedures. Cell lysates were generated from 293T cells 24 h after tranfection of Nef/mNAKC. Aliquots of transfected cells were treated with TAPI for 12 h prior to cell lysis.
To explore the significance of paxillin in this process, we expressed a paxillin mutant with a deletion of the LD4 protein domain (FIG. 3A) (Tumbarello et al., 2002). Remarkably, in cells transfected with this mutant no paxillin-TACE coimmunoprecipitation or proteolytic activation of TACE by the Nef/mNAKC complex was observed (FIG. 1F, black double arrows; controls Figure S2F). Furthermore, the LD4-mutant completely abrogated secretion of TACE via EV (FIG. 1F, red double arrow). […] Thus paxillin seemed a key factor in activation and secretion of TACE.

B1: paxillin LD4 deletion mutant (PaxΔLD4) (other, UniProt P49023-2 1-557, looked up)
chain: MDDLDALLADLESTTSHISKRPVFLSEETPYSYPTGNHTYQEIAVPPPVPPPPSSEALNGTILDPLDQWQPSSSRFIHQQPQSSSPVYGSSAKTSSVSNPQDSVGSPCSRVGEEEHVYSFPNKQKSAEPSPTVMSTSLGSNLSELDRLLLELNAVQHNPPGFPADEANSSPPLPGALSPLYGVPETNSPLGGKAGPLTKEKPKRNGGRGLEDVRPSVESLLDELESSVPSPVPAITVNQGEMSSPQRVTSTQQQTRISASSAKTGSSSPPGGPPKPGSQLDSMLGSLQSDLNKLGVATVAKGVCGACKKPIAGQVVTAMGKTWHPEHFVCTHCQEEIGSRNFFERDGQPYCEKDYHNLFSPRCYYCNGPILDKVVTALDRTWHPEHFFCAQCGAFFGPEGFHEKDGKAYCRKDYFDMFAPKCGGCARAILENYISALNTLWHPECFVCRECFTPFVNGSFFEHDGQPYCEVHYHERRGSLCSGCQKPITGRCITAMAKKFHPEHFVCAFCLKQLNKGTFKEQNDKPYCQNCFLKLFC
notes: also called paxillinΔLD4; LD4-mutant
On to B1, for which the binding result is reported as “no binding”.
